For this test, the target named is Flag-tagged LMP1 with deletion of the short N-terminal domain (ΔNT) (Epstein-Barr virus). Put plainly: co-IP; NPC-TW04 cells co-expressing Myc-FGD4 and Flag-tagged full-length, truncated or chimeric LMP1; 1% NP-40 lysates precipitated with anti-Flag M2 agarose overnight at 4°C; blot with anti-Myc and anti-Flag.

No constants are given. Whether binding was seen depends on the method and setting. In cells and extracts the contact can be indirect. Binding can be weak; no strength is given. Tags and fused reporters may be left off the sequences shown.

B1: Myc-tagged full-length FGD4 (FYVE, RhoGEF and PH domain-containing 4) (protein, UniProt Q96M96 1-766)
chain: MEEIKPASASCVSKEKPSKVSDLISRFEGGSSLSNYSDLKKESAVNLNAPRTPGRHGLTTTPQQKLLSQHLPQRQGNDTDKTQGAQTCVANGVMAAQNQMECEEEKAATLSSDTSIQASEPLLDTHIVNGERDETATAPASPTTDSCDGNASDSSYRTPGIGPVLPLEERGAETETKVQERENGESPLELEQLDQHHEMKETNEQKLHKIANELLLTERAYVNRLDLLDQVFYCKLLEEANRGSFPAEMVNKIFSNISSINAFHSKFLLPELEKRMQEWETTPRIGDILQKLAPFLKMYGEYVKGFDNAMELVKNMTERIPQFKSVVEEIQKQKICGSLTLQHHMLEPVQRIPRYEMLLKDYLRKLPPDSLDWNDAKKSLEIISTAASHSNSAIRKMENLKKLLEIYEMLGEEEDIVNPSNELIKEGQILKLAARNTSAQERYLFLFNNMLLYCVPKFSLVGSKFTVRTRVGIDGMKIVETQNEEYPHTFQVSGKERTLELQASSAQDKEEWIKALQETIDAFHQRHETFRNAIAKDNDIHSEVSTAELGKRAPRWIRDNEVTMCMKCKEPFNALTRRRHHCRACGYVVCWKCSDYKAQLEYDGGKLSKVCKDCYQIISGFTDSEEKKRKGILEIESAEVSGNSVVCSFLQYMEKSKPWQKAWCVIPKQDPLVLYMYGAPQDVRAQATIPLLGYVVDEMPRSADLPHSFKLTQSKSVHSFAADSEELKQKWLKVILLAVTGETPGGPNEHPATLDDHPEPKKKSEC
As to B1, the binding result was “binds”.

For the origin of these results see paper PMC3349753.
